From PMC11112778
No constants are given. Whether binding was seen depends on the method and setting. In cells and extracts the contact can be indirect. Some binding calls cover weakened binding; strength is not graded here.

Sequences of proteins named here, by UniProt entry; tags and fusion partners are left off.
UniProt P19474: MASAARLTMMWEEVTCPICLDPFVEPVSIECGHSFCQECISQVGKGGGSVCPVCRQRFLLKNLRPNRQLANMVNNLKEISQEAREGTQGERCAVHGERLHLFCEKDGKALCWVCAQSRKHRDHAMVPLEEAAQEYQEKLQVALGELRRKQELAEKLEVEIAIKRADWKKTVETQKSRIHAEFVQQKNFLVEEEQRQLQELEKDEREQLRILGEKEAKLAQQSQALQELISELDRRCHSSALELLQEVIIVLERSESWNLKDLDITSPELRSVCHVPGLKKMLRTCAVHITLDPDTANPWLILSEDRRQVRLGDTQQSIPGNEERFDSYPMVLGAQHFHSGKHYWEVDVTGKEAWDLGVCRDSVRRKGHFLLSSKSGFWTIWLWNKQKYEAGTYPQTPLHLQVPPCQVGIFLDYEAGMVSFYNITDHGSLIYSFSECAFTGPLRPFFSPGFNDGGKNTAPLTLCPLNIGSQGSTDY

Target: tripartite motif-containing protein 21 (human (endogenous in ESCC cells)) (UniProt P19474)
Assay: co-IP; ESCC cell lysates (RIPA lysis buffer) incubated with NEK2 or TRIM21 antibody overnight at 4 °C; protein A/G agarose beads 4 h at 4 °C; western blotting; IgG control

- binding: binds
B1: NIMA-related kinase 2 (protein, UniProt P51955 1-445)
chain: MPSRAEDYEVLYTIGTGSYGRCQKIRRKSDGKILVWKELDYGSMTEAEKQMLVSEVNLLRELKHPNIVRYYDRIIDRTNTTLYIVMEYCEGGDLASVITKGTKERQYLDEEFVLRVMTQLTLALKECHRRSDGGHTVLHRDLKPANVFLDGKQNVKLGDFGLARILNHDTSFAKTFVGTPYYMSPEQMNRMSYNEKSDIWSLGCLLYELCALMPPFTAFSQKELAGKIREGKFRRIPYRYSDELNEIITRMLNLKDYHRPSVEEILENPLIADLVADEQRRNLERRGRQLGEPEKSQDSSPVLSELKLKEIQLQERERALKAREERLEQKEQELCVRERLAEDKLARAENLLKNYSLLKERKFLSLASNPELLNLPSSVIKKKVHFSGESKENIMRSENSESQLTSKSKCKDLKKRLHAAQLRAQALSDIEKNYQLKSRQILGMR
